In US20240287165A1 (GENERAL HOSPITAL, published 2024):
Results are given in words; binding and its absence hold for the method and conditions named. Some entries that bind do so weakly or less than the wild type.

Sequences of proteins named here, by UniProt entry; tags and fusion partners are left off. A change or cut given only in a name is not applied to a line headed by its entry.
UniProt P02649: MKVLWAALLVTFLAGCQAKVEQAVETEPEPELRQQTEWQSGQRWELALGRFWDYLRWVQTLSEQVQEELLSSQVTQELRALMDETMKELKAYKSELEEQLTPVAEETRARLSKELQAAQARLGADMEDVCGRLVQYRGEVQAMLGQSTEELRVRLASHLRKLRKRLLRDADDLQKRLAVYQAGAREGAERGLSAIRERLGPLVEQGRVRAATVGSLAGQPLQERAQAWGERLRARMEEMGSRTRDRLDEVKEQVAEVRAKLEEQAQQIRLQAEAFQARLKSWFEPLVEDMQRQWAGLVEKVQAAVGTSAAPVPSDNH

Columns and labels:
[1] = target: T1, wild type ApoE peptide KLH-…-CONH2 (human); assay: ELISA of the monoclonal 25F1-2 antibody purified from cloned hybridoma, O.D. 450 nm against antibody concentration
T1 sequence (peptide, C-terminal amide (CONH2); printed with KLH on the added N-terminal cysteine): CTEELRVRLASHLRK

[2] = target: C-terminal wild type ApoE3 recombinant protein (human) (UniProt P02649); assay: ELISA on His-captured ApoE proteins
[3] = target: C-terminal wild type ApoE3 recombinant protein (human) (UniProt P02649); assay: ELISA screening (FIG. 33)

B1: antibody 25F1-2 (antibody, V domains shown)
VH: EVQLQQSGAELVRPGALVKWSCKASGFNIKDYHIHWVKQRPEQGLDWIGWIDPEIDKTLYDPKFQGKARITADTSSNTAYLQLSSLTSEDTAVYYCARGTARASFDYWGQGTTLTVSS
VL: DIVLTQSPASLAVSLGQRATISCKASQSVDYDGDTYMNWYQQKPGQPPKLLIYTASNLESGIPARFSGSGSGTDFTLNIHPVEEVDAATYYCQQSNEDPWTFGGGTKLEIK
notes: also called 25F1-2 antibody serum; monoclonal antibody hybridoma supernatant 25F1-2
For B1, the binding [1] was “no binding (tested: 1000 ng/mL)”, the binding [2] was “binds” and the binding [3] was “binds”.
